The values that follow come from paper PMC5079582.

Sequences of proteins named here, by UniProt entry; tags and fusion partners are left off.
UniProt P38420: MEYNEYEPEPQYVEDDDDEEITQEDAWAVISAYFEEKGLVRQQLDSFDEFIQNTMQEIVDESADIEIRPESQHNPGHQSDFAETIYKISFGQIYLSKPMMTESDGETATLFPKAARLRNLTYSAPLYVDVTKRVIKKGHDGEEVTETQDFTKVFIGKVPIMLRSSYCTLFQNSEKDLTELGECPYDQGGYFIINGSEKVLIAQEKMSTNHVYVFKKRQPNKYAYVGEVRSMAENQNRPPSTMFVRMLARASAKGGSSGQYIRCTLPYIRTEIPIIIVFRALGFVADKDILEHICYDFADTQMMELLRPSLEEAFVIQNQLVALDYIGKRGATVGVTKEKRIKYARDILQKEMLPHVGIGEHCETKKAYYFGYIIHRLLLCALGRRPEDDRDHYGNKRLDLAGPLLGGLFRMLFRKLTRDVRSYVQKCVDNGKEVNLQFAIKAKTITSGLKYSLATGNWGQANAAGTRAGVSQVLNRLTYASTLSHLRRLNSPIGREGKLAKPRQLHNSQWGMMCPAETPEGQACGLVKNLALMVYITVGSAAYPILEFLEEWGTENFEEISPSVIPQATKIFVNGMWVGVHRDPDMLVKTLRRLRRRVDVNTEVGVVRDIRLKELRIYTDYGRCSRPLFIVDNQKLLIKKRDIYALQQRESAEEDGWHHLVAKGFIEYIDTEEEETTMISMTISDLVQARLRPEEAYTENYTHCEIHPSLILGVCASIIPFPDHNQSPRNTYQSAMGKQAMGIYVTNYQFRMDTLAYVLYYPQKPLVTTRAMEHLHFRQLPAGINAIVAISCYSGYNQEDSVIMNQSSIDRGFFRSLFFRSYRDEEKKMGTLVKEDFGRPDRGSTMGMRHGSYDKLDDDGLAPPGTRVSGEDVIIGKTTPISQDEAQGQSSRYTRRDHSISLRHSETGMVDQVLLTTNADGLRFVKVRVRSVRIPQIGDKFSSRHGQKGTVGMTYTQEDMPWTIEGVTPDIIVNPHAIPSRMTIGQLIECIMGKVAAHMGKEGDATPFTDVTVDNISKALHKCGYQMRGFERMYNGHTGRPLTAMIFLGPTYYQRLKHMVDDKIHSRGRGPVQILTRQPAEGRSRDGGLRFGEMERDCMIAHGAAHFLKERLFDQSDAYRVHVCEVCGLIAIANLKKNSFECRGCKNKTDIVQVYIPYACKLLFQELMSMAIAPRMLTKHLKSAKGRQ

These are yes or no findings as the source states them, for the method shown. Binding seen in cells or lysates may run through a third protein. Some binding calls cover weakened binding; strength is not graded here. Where a sequence is shown, tags or fusion partners need not be part of it.

In assay [1] the target is T1, GFP-CPSF73-I (cleavage and polyadenylation specificity factor 73 kDa-I), in transgenic Arabidopsis (Arabidopsis) (UniProt Q9C952).
T1 sequence: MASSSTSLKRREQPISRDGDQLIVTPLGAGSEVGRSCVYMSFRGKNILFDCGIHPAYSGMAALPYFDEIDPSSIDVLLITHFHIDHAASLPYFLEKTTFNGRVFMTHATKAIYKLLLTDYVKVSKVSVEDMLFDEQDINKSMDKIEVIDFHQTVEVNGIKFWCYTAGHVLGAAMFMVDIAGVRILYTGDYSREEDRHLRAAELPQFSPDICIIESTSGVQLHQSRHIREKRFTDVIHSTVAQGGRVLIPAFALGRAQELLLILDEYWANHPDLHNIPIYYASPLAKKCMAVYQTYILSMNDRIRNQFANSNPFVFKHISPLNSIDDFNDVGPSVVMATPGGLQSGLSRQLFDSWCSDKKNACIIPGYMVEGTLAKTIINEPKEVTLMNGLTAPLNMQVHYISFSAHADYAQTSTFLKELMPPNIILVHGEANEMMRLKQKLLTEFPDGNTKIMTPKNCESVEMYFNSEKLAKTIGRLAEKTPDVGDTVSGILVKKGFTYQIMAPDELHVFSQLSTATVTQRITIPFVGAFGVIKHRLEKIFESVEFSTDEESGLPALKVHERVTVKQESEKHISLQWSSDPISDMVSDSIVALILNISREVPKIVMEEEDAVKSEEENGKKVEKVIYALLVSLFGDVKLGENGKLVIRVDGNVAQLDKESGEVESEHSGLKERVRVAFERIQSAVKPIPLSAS
The experiment in a line: co-IP; IP from Arabidopsis harboring 35S::GFP-CPSF73-I or GFP-DSP4, Pol II looked for by western blot (the methods name N. benthamiana for GFP-CPSF73-I). (In general: A western blot detects proteins with antibodies after separation by electrophoresis.)

Assay [2] deals with T2, GFP-CPSF73-I, expressed in N. benthamiana (Arabidopsis) (UniProt Q9C952).
T2 sequence: T1 sequence
The experiment in a line: co-IP; in vitro translated DSP3-MYC added to N. benthamiana protein extracts containing GFP-tagged proteins or GFP; western blot (paper: Co-IP/pull down).

In the case of “RPB2 (the second-largest subunit of Pol II) (from UniProt P38420 1-1188)”, in assay [1], the binding result is “no binding”.

B1: DSP3-MYC, in vitro translated (protein, UniProt Q8VZA0 1-936)
chain: MTSSMEEDDSISPESISLDTLASIRSLIINADTSDSVISSVFDFLTGLLSRGNSAILHHVLKLLSDLAFRRKELAPQIFDSILSNLLRLHNTVAEASHERAAVESLAVLASLSERTPSIAAALSKIDDEVFASICLGAPISSRLWLLRNADRFNVPSSVLFTLFLGFSKDPYPYIRKVALDGLINICNAGDFNHTHAVEGCYTRAVELLSDAEDSVRSSAVRAVSVWGKVMIASKEEEMNRRDCTDAVFLQLCSVVRDMSVDVRVEVFKAFGIIGTASESIILQTLSKKVLGAGKGKKPQNLLSNGSADVSSAAGVYIHGFEDEFYEVREAAVDSFHSLSVNSIKFPDEAVYLLMDMLYDDYMVVRLKALKALHHIADLGNLKIQETYMPAFLDAIVDTSENIRVEARNILKLAKLPDLKLVNKCIDGVLKSLEMYPQDEPDILSALFHFGQNHTNFLVSMVKRFSEKLGTASGSKAEFNSRQLSASLTLIISAPLSNKQSITSIPPLAFSYSLAMLGKFSSGLHDMMDQDMLLAYLTHCAILSSSSGTEFNKGDVFFHAYRDSNADLAGNPVLLPGKDIPAESKYMACKAELEIGNQALKFVNHILLKIKAAWLLSQSGCSKEALRALRACKQELATLTADSSISKGTLDFICQYVHVIELLVQVWPHFNYSRHISTCSSVEVELLMEEVEIKLMEIRCRFTGLSTEESLVLELVIFGCLLRLYKFEICCRLSCMEKLSSTISQLELHHEQQCTKPSDFLTETKKSLEEFGSSDDINSCRLLDLIKIFKCFSPEQFTFSVNLQCVSAEVEVPGNGPYSPISFVPGLPVAIPCEITLLNVPRDTCLWLRISRNDETCQFVYLDPNLYNGNGREKRFMFTAVTYMTPRAVVFTLRVSIGIECLFEDICYRKQRHGPKHPVAYLCKEREIHLSLVSRT
With B1, the binding entry in assay [2] is given as “binds”.
